This test has as its target T1, type-I interferon (IFN-α/β) receptor subunit IFNAR2 (human (endogenous in RPE1)) (UniProt P48551).
T1 sequence: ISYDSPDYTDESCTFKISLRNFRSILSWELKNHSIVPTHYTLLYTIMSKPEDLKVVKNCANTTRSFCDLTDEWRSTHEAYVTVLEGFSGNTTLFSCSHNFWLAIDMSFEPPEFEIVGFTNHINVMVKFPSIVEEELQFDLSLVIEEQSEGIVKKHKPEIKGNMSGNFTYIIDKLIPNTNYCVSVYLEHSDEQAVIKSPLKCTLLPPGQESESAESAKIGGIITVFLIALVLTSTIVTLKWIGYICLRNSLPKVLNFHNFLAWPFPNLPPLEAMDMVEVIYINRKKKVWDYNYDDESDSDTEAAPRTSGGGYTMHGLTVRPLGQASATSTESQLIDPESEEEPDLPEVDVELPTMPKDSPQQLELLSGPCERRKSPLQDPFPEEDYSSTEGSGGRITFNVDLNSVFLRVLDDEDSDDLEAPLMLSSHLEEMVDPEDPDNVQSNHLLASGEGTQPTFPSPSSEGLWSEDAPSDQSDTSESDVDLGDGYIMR
As to the kind of experiment: affinity purification with mass spectrometry; endogenous IFNAR2 precipitated with anti-IFNAR2 8F11 cross-linked to magnetic beads from RPE1 lysates (1% Tx100); cells with or without IFN-α or IFN-β (1,000 U ml^-1, 10 min, 37 °C), then proteinase K to digest cell surface proteins; eluates deglycosylated, SDS-PAGE, LTQ Orbitrap XL.

The chains behind the UniProt entries cited, without tags or fusion partners.
UniProt P42224: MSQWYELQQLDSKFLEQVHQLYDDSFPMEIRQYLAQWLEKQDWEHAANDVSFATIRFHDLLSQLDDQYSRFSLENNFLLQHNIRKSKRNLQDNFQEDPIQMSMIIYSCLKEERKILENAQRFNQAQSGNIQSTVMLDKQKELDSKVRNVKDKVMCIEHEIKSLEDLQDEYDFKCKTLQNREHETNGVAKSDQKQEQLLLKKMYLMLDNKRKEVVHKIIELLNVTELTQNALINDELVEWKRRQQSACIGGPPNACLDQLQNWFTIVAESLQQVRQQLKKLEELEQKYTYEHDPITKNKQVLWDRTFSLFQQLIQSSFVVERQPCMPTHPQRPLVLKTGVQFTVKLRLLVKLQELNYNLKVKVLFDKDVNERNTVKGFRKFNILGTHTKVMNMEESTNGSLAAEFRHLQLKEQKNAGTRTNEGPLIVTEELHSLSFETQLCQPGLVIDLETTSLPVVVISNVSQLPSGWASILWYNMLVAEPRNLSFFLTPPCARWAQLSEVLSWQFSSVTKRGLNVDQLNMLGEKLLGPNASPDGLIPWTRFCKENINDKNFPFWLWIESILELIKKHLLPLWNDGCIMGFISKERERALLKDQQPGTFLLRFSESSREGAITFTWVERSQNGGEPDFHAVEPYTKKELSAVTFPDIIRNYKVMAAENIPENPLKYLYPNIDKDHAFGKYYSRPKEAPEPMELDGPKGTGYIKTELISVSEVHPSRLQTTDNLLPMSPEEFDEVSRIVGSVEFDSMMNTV

Results are given in words; binding and its absence hold for the method and conditions named. In cells and extracts the contact can be indirect. A yes stands for co-enrichment or nearness to the bait. Other partners may have been found.

Take STAT1 (from UniProt P42224 1-750): the binding result is listed as “binds”.
To VPS26A (from UniProt O75436 1-327) belongs “binds”.
